Here are results for 17 molecules from PubChem BioAssay AID493014 (National Center for Advancing Translational Sciences (NCATS), 2011).

The structures appear in SMILES notation. Some of the results follow. Shown are side measurements of this screen, not its main read-out; they come without a call. Compounds called inactive in the main read-out are mostly missing here. Words in brackets tell the shape of the fitted curve; partial curves, single points and poor fits give uncertain potencies.

As a reminder, the AC50 is the midpoint of the concentration-response curve, whichever way the signal moves.

This assay can be described thus: qHTS Assay to Find Inhibitors of Chronic Active B-Cell Receptor Signaling. To be noted: ABC-DLBCL IkBa-CBG/CBR reporter, luminescence ratio (green luciferase fused to IkBa over red control in TMD8 lymphoma cells), 4 h; measured here: CBR red luminescence, cell number. In a few lines: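 TMD8 ABC-DLBCL cells carrying doxycycline-inducible green luciferase fused to IkappaBalpha plus unfused red luciferase were exposed to compounds (up to 46 uM) for 4 hrs at 37C. Activity came from the overlap-corrected green/red luminescence ratio.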
Background: In qHTS, concentration-response curves come from the screen itself.
In the case of `O=C(c1ccccc1)c1ccc2cc(O)ccc2c1`, the AC50 was 0.112 µM [rising, full curve, poor fit].

For the molecule `COC(=O)c1cc(-c2c(C)nn(-c3ccccc3)c2C)n[nH]1`, the concentration at half-maximal activity (AC50) is 7.31 µM [falling, partial curve].

Consider `CCc1[nH]nc2c1C(Cc1ccccc1)C(C#N)=C(N)O2` (configuration not stated), for which the AC50 is 14.6 µM [rising, partial curve, poor fit].

On to `COCCCNC(=O)CN(c1cc(C(F)(F)F)ccc1Cl)S(C)(=O)=O`, for which the concentration at half-maximal activity (AC50) was 0.447 µM [rising, full curve, poor fit].

For the molecule `Cc1cc(C(=O)COC(=O)c2ccc(O)cc2)c(C)n1CC1COc2ccccc2O1` (configuration not stated), the half-maximal activity concentration (AC50) is 23.1 µM [falling, single point].

For `COc1ccc(C(c2c(C)[nH][nH]c2=O)c2c(C)[nH][nH]c2=O)cc1Br`, the AC50 was 15.8 µM [falling, single point].

Regarding `CCOC(=O)c1c(CN2CCN(C)CC2)oc2ccc(O)cc12`, the half-maximal activity concentration (AC50) was 20 µM [falling, single point].

As for `Cc1ccc(S(=O)(=O)N2CCCCC2)cc1NC(=O)c1cncc(Br)c1`, the AC50 was 0.366 µM [rising, partial curve, poor fit].

Turning to `COc1ccc(C)cc1S(=O)(=O)Nc1cc2c3c(c1)C(C)C(=O)N3CCC2` (configuration not stated), the concentration at half-maximal activity (AC50) was 7.31 µM [rising, single point].

Consider `O=C(COc1ccccc1Cl)N1CCN(c2ccc(F)cc2)CC1`, for which the AC50 was 18.4 µM [rising, single point].

Consider `O=S(=O)(c1ccccc1F)N1CCN(Cc2nc3ccccc3[nH]2)CC1`, for which the half-maximal activity concentration (AC50) is 18.4 µM [rising, partial curve, poor fit].

With `Oc1ccc(Br)cc1/C=N/n1c(COc2ccccc2)n[nH]c1=S`, the half-maximal activity concentration (AC50) was 7.08 µM [rising, partial curve, poor fit].

As to `O=C(CCc1nnc(Cc2ccc3c(c2)OCO3)o1)N(CC1CCC1)CC1CCCO1` (configuration not stated), the concentration at half-maximal activity (AC50) is 7.08 µM [rising, partial curve].

Consider `O=C(/C=C/c1ccccc1Cl)c1ccccc(=O)c1O`, for which the half-maximal activity concentration (AC50) was 23.1 µM [falling, single point].

`OC(CNCCC1C=Nc2ccccc21)Cn1c2ccc(Cl)cc2c2cc(Cl)ccc21` (configuration not stated): the AC50 was 29.1 µM [falling, single point].

Take `CCN(CC)C(=O)[C@H]1C[C@H](CC(=O)NC/C=C(\C)CCC=C(C)C)C(=O)N2CCc3c([nH]c4cc(CCC(=O)N(C)C)ccc34)[C@]12C`: the AC50 is 18.4 µM [falling, single point].

Take `O=C(NCc1ccco1)C(c1ccccc1)N(CC1CCCO1)C(=O)Cn1nnc2ccccc21` (configuration not stated): the AC50 was 6.31 µM [falling, single point].
